In publication PMC3264624:
These are yes or no findings as the source states them, for the method shown.

Amino acid sequences for entries named in this document (tags omitted). A change or cut given only in a name is not applied to a line headed by its entry.
UniProt P40350: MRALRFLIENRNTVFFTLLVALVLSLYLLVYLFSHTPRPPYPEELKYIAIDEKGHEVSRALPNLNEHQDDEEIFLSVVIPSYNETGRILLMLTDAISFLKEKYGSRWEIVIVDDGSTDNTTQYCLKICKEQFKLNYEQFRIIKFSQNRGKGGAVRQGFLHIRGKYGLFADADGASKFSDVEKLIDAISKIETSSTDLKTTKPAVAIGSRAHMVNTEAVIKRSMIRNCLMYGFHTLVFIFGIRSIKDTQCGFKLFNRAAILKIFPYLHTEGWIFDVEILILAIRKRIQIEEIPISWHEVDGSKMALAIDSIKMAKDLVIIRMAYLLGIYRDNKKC
UniProt Q70KR8: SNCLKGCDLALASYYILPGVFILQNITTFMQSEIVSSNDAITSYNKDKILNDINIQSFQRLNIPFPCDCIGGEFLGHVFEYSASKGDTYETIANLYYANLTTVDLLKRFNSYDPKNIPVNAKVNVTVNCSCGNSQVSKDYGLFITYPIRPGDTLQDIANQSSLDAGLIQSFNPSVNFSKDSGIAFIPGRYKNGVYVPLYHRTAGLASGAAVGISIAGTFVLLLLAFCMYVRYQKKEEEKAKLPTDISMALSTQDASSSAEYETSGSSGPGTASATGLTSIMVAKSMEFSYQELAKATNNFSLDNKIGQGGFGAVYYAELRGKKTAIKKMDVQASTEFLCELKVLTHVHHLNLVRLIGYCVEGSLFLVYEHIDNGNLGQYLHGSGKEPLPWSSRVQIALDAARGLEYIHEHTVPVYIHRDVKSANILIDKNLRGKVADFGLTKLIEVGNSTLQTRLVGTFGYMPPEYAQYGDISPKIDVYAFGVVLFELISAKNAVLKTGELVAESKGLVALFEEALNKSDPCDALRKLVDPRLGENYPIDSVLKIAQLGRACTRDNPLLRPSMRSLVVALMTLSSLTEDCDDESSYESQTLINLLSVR

Biological target: yeast resident ER protein Alg5, split-ubiquitin control fusion (yeast) (UniProt P40350)
Assay: two-hybrid; yeast split-ubiquitin system (SUS), strain NMY32; Cub bait and NubG prey; growth on -LWH medium with 15 mM 3-AT, dilution series

“NFR1, yeast split-ubiquitin fusion (from UniProt Q70KR8) (receptor)” was tested, and the binding was “no binding”.
